Over roughly 33,000 sequences, “E-score (-0.5 to 0.5)” has its median near -8e-05; the highest 2% begin near 0.23. This is one part of the list.
biological target: T1, Nrg2 (UniProt P38082); experiment: PBM E-score (8-mer binding enrichment) (E-score (-0.5 to 0.5)); higher = stronger / more preferred TF binding; conditions: protein concentration: 100 nM; construct: GST-full length
T1 sequence: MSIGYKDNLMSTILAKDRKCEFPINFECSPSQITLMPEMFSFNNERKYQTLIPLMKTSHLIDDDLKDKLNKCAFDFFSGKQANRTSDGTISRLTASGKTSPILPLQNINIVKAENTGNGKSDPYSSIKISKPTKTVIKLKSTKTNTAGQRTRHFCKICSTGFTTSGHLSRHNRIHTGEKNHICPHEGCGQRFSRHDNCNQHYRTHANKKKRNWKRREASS
Summary of the method: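 Each ungapped eight-base word and its reverse complement, pooled, received an E-score from the Universal PBM Analysis Suite. Underlying scans, normalised with masliner, recorded fluorescent anti-GST bound to GST-tagged yeast transcription factors. These were applied at about 100-200 nM to universal all-10-mer Agilent arrays double-stranded by primer extension.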

Sequence	PBM E-score
TGGCCGAA	-0.03
AACGGATG	-0.00493
CGTCTACA	-0.268
ACTTTGTG	0.164
GTTACATA	0.0456
ACGCGGGA	0.116
GCCTGCAC	-0.06
CGCCACGA	-0.217
ACCAAATA	0.207
CTTACTGA	0.0211
CGTTATGC	0.0998
CGGCCTAC	0.138
ACTTTGTA	-0.0538
CCCGATAG	-0.123
ATCTACAC	0.0466
CAATTCCA	-0.0703
CCCCTACC	-0.0827
ACAAAAAG	-0.0161
ATGCTGAC	-0.0874
GAAGTAGA	0.141
ACAAGCAT	0.111
AGCCACAG	-0.134

Fetched one by one from the entries so far, four records:
Sequence	PBM E-score
CGTCTACA	-0.268
GAAGTAGA	0.141
GTTACATA	0.0456
ATGCTGAC	-0.0874

Later entries.

Sequence	PBM E-score
TCACTGCA	0.167
TAAACGGA	0.0853
CGATGCTC	-0.152
CGATACGA	-0.00856
ACTTTTAT	-0.0597
GGGTAATA	0.15
ATCATTTG	0.149
TAGCGTGA	0.0132
TGGGTACA	-0.0706
AATAAGAT	0.0228
CGGCTCGC	0.00599
TTAGCGAA	0.0524
CATTGAAG	-0.186
CAGCAAAC	0.0686
GATATGTA	0.0697
CCCTACTA	-0.0215
CCGACCAC	-0.0556
AAATTACT	0.123
CTGCTAGC	-0.337
CTGAATTA	0.201
AGCGCAAT	0.0477
AACTCTGA	0.171

Sequence	PBM E-score
AGATCTTG	-0.0233
ACTAGGAC	-0.00051
GAAAGTGA	-0.0429
AACCAGAA	0.0493
AGGCATAA	0.0447
CTGCACTA	0.108
CAATATAG	0.131
CAGAAAGC	0.0226
ACGTCGAA	0.0356
GGTTTAAA	-0.0983
AAGTCCGT	-0.185
GTGCACAA	-0.0644
AGTACCGC	-0.0116
ATGGTCGG	-0.0431
ATTGTCTG	0.0469
AGCGACCG	-0.134
AACGGCGG	-0.0346
CAACAGGG	0.312
CTTGTTCA	0.0002
AAAGTATA	0.0838
ACAGTGGG	-0.0812
CCGTACGG	-0.142

Sequence	PBM E-score
ATAACGAA	0.187
CAAGGTTA	0.0225
CAGACCAA	0.0347
ACCTCCGC	0.00243
CAAGCACA	-0.17
AATAATTG	-0.0103
GTCGTGAA	-0.244
TGCCAGCA	-0.00651
GCGGTACC	-0.048
GAATTAGC	-0.00932
AACACACA	0.194
TGCGCAAA	0.1
AGAAGTAC	-0.0369
AAAGTAAT	0.0873
GAGATCAC	-0.0525
TCACAGCA	0.106
CCGATAGA	-0.0479
CAACAACG	-0.0956
CCTTTAGA	-0.136
CAGTAAAA	0.0186
